No constants are given. Whether binding was seen depends on the method and setting. In cells and extracts the contact can be indirect. Some results given as binding are weak or reduced against the parent protein; the word gives no strength.
Molecular target: Myc-Cullin1-full (UniProt Q13616)
Experiment: co-IP; HEK-293T co-transfected with tagged constructs; lysis in 25 mM Tris-HCl pH 8.0, 150 mM NaCl, 1% Nonidet P-40, 1 mM EDTA; IP with tag antibody and Protein G-Sepharose at 4 °C, immunoblot; cells of the MDM2 homodimer experiment treated with 20 µM MG132 for 16 h

Amino acid sequences for entries named in this document (tags omitted).
UniProt Q13616: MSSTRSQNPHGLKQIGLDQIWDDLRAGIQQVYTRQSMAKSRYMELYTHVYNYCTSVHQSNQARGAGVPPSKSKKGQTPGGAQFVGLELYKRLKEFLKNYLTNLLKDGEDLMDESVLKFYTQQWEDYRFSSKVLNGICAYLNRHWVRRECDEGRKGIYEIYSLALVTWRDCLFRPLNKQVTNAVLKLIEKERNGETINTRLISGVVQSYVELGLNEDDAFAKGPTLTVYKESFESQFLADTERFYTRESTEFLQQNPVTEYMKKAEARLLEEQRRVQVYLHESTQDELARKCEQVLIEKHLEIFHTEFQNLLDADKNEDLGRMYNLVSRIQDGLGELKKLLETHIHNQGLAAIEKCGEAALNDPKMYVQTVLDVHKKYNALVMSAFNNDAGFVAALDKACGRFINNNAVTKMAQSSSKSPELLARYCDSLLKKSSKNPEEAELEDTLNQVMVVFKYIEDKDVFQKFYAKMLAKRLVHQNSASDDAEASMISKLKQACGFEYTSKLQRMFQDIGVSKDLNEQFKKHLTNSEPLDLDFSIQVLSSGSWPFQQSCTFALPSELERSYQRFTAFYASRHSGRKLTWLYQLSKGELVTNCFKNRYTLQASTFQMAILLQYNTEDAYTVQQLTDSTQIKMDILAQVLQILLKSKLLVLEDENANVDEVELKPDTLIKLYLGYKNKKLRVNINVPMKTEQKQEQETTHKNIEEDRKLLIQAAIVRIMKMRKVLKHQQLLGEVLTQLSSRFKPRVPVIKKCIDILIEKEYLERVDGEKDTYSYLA

V5-MDM2 (from UniProt Q00987 1-491)
binding: binds
